# B1: Q9D023 (protein, UniProt Q9D023 1-127, looked up)
# chain: MAAAGARGLRATYHRLMDKVELLLPKKLRPLYNHPAGPRTVFFWAPIMKWGLVCAGLADMARPAEKLSTAQSTVLMATGFIWSRYSLVIIPKNWSLFAVNFFVGSAGASQLFRIWRYNQELKSKGIQ
# modifications: full-length
# B2: Q9CR64 (protein, UniProt Q9CR64 1-72, looked up)
# chain: MSAIFNFQSLLTVILLLICTCAYIRSLAPSILDRNKTGLLGIFWKCARIGERKSPYVAICCIVMAFSILFIQ
# modifications: full-length
# B3: Q5SYD0 (protein, UniProt Q5SYD0 1-1006, looked up)
# chain: MAEQESLEFGKADFVLMDTVSMPEFMANLRLRFEKGRIYTFIGEVVVSVNPYKVLNIYGRDTVEQYKGRELYERPPHLFAIADAAYKAMKRRSKDTCIMISGESGAGKTEASKYIMQYIAAITNPSQRAEIERVKNMLLKSNCVLEAFGNAKTNRNDNSSRFGKYMDINFDFKGDPIGGHINNYLLEKSRVIVQQPGERSFHSFYQLLQGGSEQMLHSLHLQKSLSSYNYIRVGAQLKSSINDAAEFKVVADAMKVIGFKPEEIQTVYKILAVILHLGNLKFIVDGDTPLIENGKVVSVIAELLSTKADMVEKALLYRTVATGRDIIDKQHTEQEASYGRDAFAKAIYERLFCWIVTRINDIIEVKNYDTTIHGKNTVIGVLDIYGFEIFDNNSFEQFCINYCNEKLQQLFIQLVLKQEQEEYQREGIPWKHIDYFNNQIIVDLVEQQHKGIIAILDDACMNVGKVTDGMFLEALNSKLGKHGHFSSRKTCASDKILEFDRDFRIRHYAGDVVYSAIGFIDKNKDTLFQDFKRLMYNSSNPVLKNMWPEGKLSITEVTKRPLTAATLFKNSMIALVDNLASKEPYYVRCIKPNDKKSPQIFDDERCRHQVEYLGLLENVRVRRAGFAFRQTYEKFLHRYKMISEFTWPNHDLPSDKEAVKKLIERCGFQDDVAYGKSKIFIRTPRTLFTLEELRAQMLVRVVLFLQKVWRGTLARMRYKRTKAALTIIRYYRRYKVKSYIHEVARRFHGVKNMRDYGKHVKWPTPPKVLRRFEEALQSIFNRWRASQLIKTIPASDLPQVRAKVAAMEMLKGQRADLGLQRAWEGNYLASKPDTPQTSGTFVPVANELKRKDKYMNVLFSCHVRKVNRFSKVEDRAIFVTDRHLYKMDPTKQYKVMKTIPLYNLTGLSVSNGKDQLVVFHTKDNKDLIVCLFSKQPTHESRIGELVGVLVNHFKSEKRHLQVNVTNPVQCSLHGKKCTVSVETRLNQPQPDFTKNRSGFILSVPGN
# modifications: full-length
# B4: Q91ZW3 (protein, UniProt Q91ZW3 1-1051, looked up)
# chain: MSSAVEPPPPPPPESAPSKPSAAGAGGSSSGNKGGPEGGAAPAAPCAAGSGPADTEMEEVFDHGSPGKQKEIQEPDPTYEEKMQTDRANRFEYLLKQTELFAHFIQPAAQKTPTSPLKMKPGRPRVKKDEKQNLLSVGDYRHRRTEQEEDEELLTESSKATNVCTRFEDSPSYVKWGKLRDYQVRGLNWLISLYENGINGILADEMGLGKTLQTISLLGYMKHYRNIPGPHMVLVPKSTLHNWMSEFKKWVPTLRSVCLIGDKEQRAAFVRDVLLPGEWDVCVTSYEMLIKEKSVFKKFNWRYLVIDEAHRIKNEKSKLSEIVREFKTTNRLLLTGTPLQNNLHELWSLLNFLLPDVFNSADDFDSWFDTNNCLGDQKLVERLHMVLRPFLLRRIKADVEKSLPPKKEVKIYVGLSKMQREWYTRILMKDIDILNSAGKMDKMRLLNILMQLRKCCNHPYLFDGAEPGPPYTTDMHLVTNSGKMVVLDKLLPKLKEQGSRVLIFSQMTRVLDILEDYCMWRNYEYCRLDGQTPHDERQDSINAYNEPNSTKFVFMLSTRAGGLGINLATADVVILYDSDWNPQVDLQAMDRAHRIGQTKTVRVFRFITDNTVEERIVERAEMKLRLDSIVIQQGRLVDQNLNKIGKDEMLQMIRHGATHVFASKESEITDEDIDGILERGAKKTAEMNEKLSKMGESSLRNFTMDTESSVYNFEGEDYREKQKIAFTEWIEPPKRERKANYAVDAYFREALRVSEPKAPKAPRPPKQPNVQDFQFFPPRLFELLEKEILYYRKTIGYKVPRSPDLPNAAQAQKEEQLKIDEAEPLNDEELEEKEKLLTQGFTNWNKRDFNQFIKANEKWGRDDIENIAREVEGKTPEEVIEYSAVFWERCNELQDIEKIMAQIERGEARIQRRISIKKALDTKIGRYKAPFHQLRISYGTNKGKNYTEEEDRFLICMLHKLGFDKENVYDELRQCIRNSPQFRFDWFLKSRTAMELQRRCNTLITLIERENMELEEKEKAEKKKRGPKPSTQKRKMDGAPDGRGRKKKLKL
# modifications: full-length
# B5: Q9QZJ6 (protein, UniProt Q9QZJ6 1-164, looked up)
# chain: MLFLGQKALLLVLAISIPSDWLPLGVSGQRGDDVPETFTDDPNLVNDPSTDDTALADITPSTDDLAGDKNATAECRDEKFACTRLYSVHRPVRQCVHQSCFTSLRRMYIINNEICSRLVCKEHEAMKDELCRQMAGLPPRRLRRSNYFRLPPCENMNLQRPDGL
# modifications: full-length
# B6: Q6P5B0 (protein, UniProt Q6P5B0 1-1295, looked up)
# chain: MGRSGKLPSGVSAKLKRWKKGHSSDSNPATCRHRQAARSRFFSRPSGKSDLTVDAVKLHNELQSGTLSLGKSQAPETTMDQDPEVAFTEKSSGTFLSGLSDCTNVTFSKVQRFWESNSAAHKEICAVLAAVTEVIRSQGGKETETEYFAALMTTMEAVESPESLAAVAYLLNLVLKRVPSPVLMKKFSDTSKAFMDIMSAQASSGSTSALRWVLSCLAILLRKQDLEAWGYPITLQVYHGLLSFTVHAKPKIRKAAQHGVCSVLKGSDFMFGEKAPAHHPAAVSTAKFCIQEIEKSGGSKEATTTLHMLTLLKDMLPCFPEGLVKSCSETLLRVMTLNHVLVTACAMQAFHNLFHAKPSPSTLSAELNAQIVTALYDYVPSENDLQPLLAWLKVMEKAHINLVRLQRDLGLGHLARFFGTAVTCLLSPHSQVAAAATQTLKEILKECVAPHIADIGSVTSSASGPPQYITKMFRAVEEGLTYKFHAAWSSVLQLLGVFFEACGKQAHPVMKKCLQSLCDLRLSPHFPHTAALDQAVGAAVTSMGPEVVLQAVPLEIDGSEETLDFPRSWLLPVIRDHVRETRLGFFTTYFLPLATTLKRKAMDLAQAGSTVESKIYDTLQWQIWTLLPGFCTRPTDVAASFKGLARTLGTAINERPDLRVTVCQALRTLITKGCEAEADRAEVSRFAKNFLPILFNLYGQPVAAGEAAAPRRAVLETIKTYLTITEAQLVNSFLEKATEKVLDPASSDFTRLSVLDLVVALAPYSDEAAISKLYSTIRPYLESKVHGVQKKAYRVLEEVCASSQGPAARFVQSHLDDLKKTLLDSLRTTSSPAKRPRLKCLIHIVKTLSAEHEEFIAALIPEVILCTKEVSVGARKSAFTLLVEMGHAFLRFGSNQEDALQRYLVLIYPGLLGAVTTVSCSILALTHLLFEFKGLMGTSTVEQLLENVCLLLASRTRDVVKSALGFIKVAVVVMDVVHLAKHVQLVMEAIGKLSDDMRRHFRMKLRNLFIKFTRKFGFELVKGLLPAEYHKVLINIRKAETRAKKHRALSQAAVEEEEEEEEEEEPVQSKGDSIEEILADSEDEDEEEERGRGKEQRKLARQRSRAWLKEGGGDEPLNFLDPKVAHRVLATQPGPGRGKKRDHGFKLSADGRLIIREEEDGNKVEEEDGTKGEDEDMTDAMEDASVRSKKKLKRQREDEEDELEIPPRYQAGGSGIHRPVAKKAAPGAEYKAKKAKGDVKKKGRLDPYAYVPLNRSKLNRRKKVKLQGQFKGLVKATQRGSQAGHKLRRKDRRRP
# modifications: full-length
# B7: Q9DBS1 (protein, UniProt Q9DBS1 1-400, looked up)
# chain: MAANYSSTSSRKEHVKVTSEPQPGFLERLSETSGGMFVGLMTFLLSFYLIFTNEGRALKTATSLAEGLSLVVSPDSIHSVAPENEGRLVHIIGALRTSKLLSDPNYGVHLPAVKLRRHVEMYQWVETEESSEYTEDGQVKKETKYSYNTEWRSEIVNSRNFDREIGHKNPSAMAVESFTATAPFVQIGRFFLSAGLIDKIDNFKALSLAKLEDPHVDIIRRGDFFYHSENPKYPEVGDVRVSFSYAGLSSDDPDLGPAHVVTVIARQRGDQLIPYSTKSGDTLLLLHHGDFSAEEVFRREQKSNSMKTWGLRAAGWMAMFMGLNLMTRILYTLVDWFPVFRDLVNIGLKAFAFCVATSLTLLTVAAGWLFYRPLWAALIGCLALVPIIIARTRVPAKKLE
# modifications: full-length
# B8: Q9Z0R9 (protein, UniProt Q9Z0R9 1-444, looked up)
# chain: MGKGGNQGEGSTERQAPMPTFRWEEIQKHNLRTDRWLVIDRKVYNVTKWSQRHPGGHRVIGHYSGEDATDAFRAFHLDLDFVGKFLKPLLIGELAPEEPSLDRGKSSQITEDFRALKKTAEDMNLFKTNHLFFFLLLSHIIVMESLAWFILSYFGTGWIPTLVTAFVLATSQAQAGWLQHDYGHLSVYKKSIWNHVVHKFVIGHLKGASANWWNHRHFQHHAKPNIFHKDPDIKSLHVFVLGEWQPLEYGKKKLKYLPYNHQHEYFFLIGPPLLIPMYFQYQIIMTMISRRDWVDLAWAISYYMRFFYTYIPFYGILGALVFLNFIRFLESHWFVWVTQMNHLVMEIDLDHYRDWFSSQLAATCNVEQSFFNDWFSGHLNFQIEHHLFPTMPRHNLHKIAPLVKSLCAKHGIEYQEKPLLRALIDIVSSLKKSGELWLDAYLHK
# modifications: full-length
# Assay: Proteomic analysis of native murine pancreata and decelled pancreatic ECM (Table 1)
# Parameters: species or system mouse
# Details: abundance of the listed protein in decelled pancreatic ECM
row,Molecule,Pancreatic ECM: Mean of log2(intensities) [a.u.]
1,B1,27.53
2,B2,26.22
3,B3,27.11
4,B4,25.96
5,B5,29.69
6,B6,26.17
7,B7,27.14
8,B8,25.70

# Same assay, conditions: abundance of the listed protein in native murine pancreas tissue
row,Molecule,Native pancreas tissue: Mean of log2(intensities) [a.u.]
1,B1,22.02
2,B2,21.06
3,B3,22.08
4,B4,20.98
5,B5,22.53
6,B6,21.32
7,B7,22.45
8,B8,21.09
